Source: publication PMC12032720, “Pharmacological assessment of the extract and a novel compound of Bacillus velezensis DM derived from the rhizosphere of Datura metel L. with microbial molecular screening” (BMC Complementary Medicine and Therapies, 2025)
In brackets after ≈: the same amount, converted by molar mass.

Key:
MCF-7 = experiment: MTT cytotoxicity on breast cancer cell line MCF-7; type: cell-based; conditions: Homo sapiens, MCF7, 0–100 µg/mL, mean ± SD, n = 3
Description: (§1) Diverse human cancer cell lines: liver cancer cells (HepG2), colon cancer cell line (HCT-116), and breast cancer cell line (MCF-7) were brought from VACSERA Tissue Culture Unit (Giza, Egypt). RPMI-1640 media enhanced with 10% fetal bovine serum and […] gentamycin were employed to culture the cells. The cells were incubated at 37 °C with 5% CO2. […] IC50 was calculated by the Graph Pad Prism (version 8, San Diego, CA, USA) (n = 3 replicates). Data are presented as mean ± SD.

HepG-2 = experiment: MTT cytotoxicity on liver cancer cells HepG-2; type: cell-based; conditions: Homo sapiens, HepG2, 0–100 µg/mL, mean ± SD, n = 3
Description: as §1

Which IC50 (MCF-7) does the source give for `COc1cccc2c1C(=O)c1c(O)c3c(c(O)c1C2=O)C[C@@](O)(C(=O)CO)C[C@@H]3O[C@H]1C[C@H](N)[C@H](O)[C@H](C)O1` [Doxorubicin (DOX), Doxorubicin] here?
Its IC50 is 11.7 ± 0.4 µg/mL (≈ 21.5 µM).

What about the IC50 (HepG-2) of the same compound?
Its IC50 is 7.21 ± 0.32 µg/mL (≈ 13.3 µM).
